Assay results published in PMC12040169 (PLOS Biology, 2025).
The list shows a part of the results.

Test system: T1, CTL2-GFP (C. trachomatis L2/434/Bu, GFP-expressing)
T1 construct: L2/434/Bu, GFP-expressing
Set-up: species or system HeLa; Intracellular C. trachomatis growth in HeLa cells, bulk GFP fluorescence relative to DMSO
Settings: bulk GFP, single well; 28.5 h, 10 µM; inhibitor

SMILES | % of control remaining [%]
c1cnc(N2CCCC2)c(OC2CCOC2)n1 (stereo not drawn) [CBK115891] | 110.468
COc1ccccc1N/C(=N\OCc1ccc(Cl)cc1Cl)c1nonc1N [CBK018391] | 78.5131
O=S(=O)(NC1CCCCC1Sc1nnc(Nc2ccccc2)s1)c1ccccc1 (stereo not drawn) [CBK266378] | 140.636
COc1cccc(C2(NC(=O)CCn3nc(C)cc3C)CCCC2)c1 [CBK283749] | 109.722
CCn1c(CN2CCOCC2)nnc1SCC(=O)Nc1cc(Cl)ccc1C [CBK270183] | 148.009
COc1cc(/C=c2\sc3nc(-c4ccccc4OC(C)=O)nn3c2=O)ccc1OCc1ccccc1 [CBK264575] | 123.439
O=C1CC(c2ccccc2)CC(=O)N1c1nnn[nH]1 [CBK291154] | 151.551
COc1cc(-c2cn3ccnc3c(NCC3CC3)n2)ccc1O [CBK037538] | 157.202
Cc1nc2nc(N)nn2c(C)c1CCC(=O)NCc1cccc(Cl)c1 [CBK304993] | 83.7872
O=C(NC(NC(=O)c1ccccc1F)c1ccc2c(c1)OCO2)c1ccccc1F [CBK265742] | 119.738
Cc1nc(S(=O)(=O)CCn2cccn2)n(C2CCCCC2)c1C [CBK305217] | 84.5184
Cc1cc(C)nc(NC(=N)NCc2ccccc2)n1 [CBK288157] | 100.469
CC1CCCCN1C(=O)Cn1c(C2CCOCC2)cc2cccnc21 (stereo not drawn) [CBK284675] | 108.088
Cc1cc(Oc2ccccc2)nc(NCc2ccccc2)n1 [CBK003557] | 97.092
Cn1c(SCC(=O)N2CCN(c3ccccc3)CC2)nc2cc(Cl)ccc21 [CBK298295] | 157.508
CC(C)(C)OC(=O)N1CCC[C@H]([C@H](O)c2cccs2)C1 [CBK282301] | 142.949
OCCN(CCO)c1cncc(-c2cccc(C(F)(F)F)c2)n1 [CBK037917] | 116.343
O=c1nc2c(cn1[C@H]1C[C@@H](O)[C@@H](CO)O1)Sc1ccccc1N2 [CBK201237] | 196.987
CNC(=O)CSc1nc2ccccc2nc1C(F)(F)F [CBK107206] | 100.797
Nc1ncc(-c2ccc3c(c2)OCO3)nc1-c1ccc(O)cc1 [CBK122505] | 77.8919
Cc1ccc(OCC(=O)O/N=C(\N)c2ccccn2)cc1C [CBK264755] | 131.274
CCOc1cc(/C=C2\SC(=S)N(Cc3cccnc3)C2=O)ccc1OCc1cccc(F)c1 [CBK264615] | 90.7109
COc1ncccc1CNC(=O)Nc1cccn(CC(F)(F)F)c1=O [CBK305216] | 85.8906
Cc1nn(C(C)CC(=O)N2CCCC(CN(C)C)C2)c(C)c1Cl (stereo not drawn) [CBK282137] | 122.856
COc1ccc(/C=N/NS(C)(=O)=O)cc1 [CBK261981] | 110.755
COc1ccc(C(C)NC(=O)c2cc(-c3ccc(F)cc3)[nH]n2)cc1 (stereo not drawn) [CBK288060] | 133.848

SMILES | % of control remaining [%]
CC(C)C(=O)Nc1cc2ccccc2c(-c2ccc(OCc3ccccc3)c(F)c2)n1 [CBK073783] | 105.638
Cc1ccc2[nH]c3nc(N/N=C/c4ccc(-c5cccc([N+](=O)[O-])c5)o4)nnc3c2c1 [CBK262365] | 109.669
O=C(c1c(NS(=O)(=O)c2cccc3cccnc23)sc2c1CCCC2)N1CCOCC1 [CBK028655] | 107.067
CCn1cc(S(=O)(=O)NCC2(c3ccccc3)CCCC2)cn1 [CBK282768] | 138.606
CC(C)Oc1ncccc1OCCO [CBK001465] | 101.395
COc1ccccc1N1CCN(C(=O)NCCC(C)C)CC1 [CBK155611] | 91.8584
CC(=O)c1cc2c(cc1NC(=O)CSc1nc3ccccc3[nH]1)OCO2 [CBK266110] | 79.9162
COC(=O)c1ccc(Cl)c(NC(=O)CSc2nnc(-c3ccncc3)[nH]2)c1 [CBK268702] | 163.215
CCOC(=O)c1cnc(SCCc2ccccc2)nc1N [CBK085871] | 99.5073
CCNc1cc(-c2cncc(OC)c2)ncn1 [CBK090881] | 145.017
NC(=O)N/N=C/c1ccncc1 [CBK260922] | 111.489
N#CC1=C(N)n2c(s/c(=C\c3ccc(O)cc3)c2=O)=C(C#N)C1c1ccc(O)cc1 (stereo not drawn) [CBK217780] | 100
Cc1cc(C(C)(C)C)cc(S(=O)(=O)Nc2ccc(O)c(C(=O)O)c2)c1C [CBK266196] | 216.587
CC(=O)N1CCC2(CCCC[C@H]3CN(C(=O)CCC(C)C)CC[C@@H]3NC(=O)CNC2=O)CC1 [CBK292124] | 107.993
Cc1oc(C(C)(C)C)cc1C(=O)NCCNc1c(Cl)cccc1[N+](=O)[O-] [CBK265032] | 110.393
CCCCNC(=S)N1CC[C@@H]2CN(C)C[C@]2(c2ccc(OC)c(OC)c2)C1 [CBK075101T] | 109.275
c1ccc2c(c1)OCC(COc1nccnc1OC1CCNCC1)O2 (stereo not drawn) [CBK070766T] | 189.022
NC1CCN(C(=O)Cn2c3ccccc3c(=O)c3ccccc32)C1 (stereo not drawn) [CBK304300C] | 92.2967
COc1cc(Nc2nc(-c3c(OC)cccc3OC)cn3ccnc23)cc(OC)c1OC [CBK037395] | 97.7388
CC(NC(=O)c1cccc(Oc2ccccc2)c1)c1ccncc1 (stereo not drawn) [CBK270327] | 119.948
Cc1ccc(C(NC(=O)Cn2ccnc2)c2ccncc2)cc1C (stereo not drawn) [CBK281591] | 118.8
O=C(CCc1cc(F)ccc1F)NCCCn1nc2n(c1=O)CCCC2 [CBK305782] | 132.885
Cc1nnc(SCC(=O)NNC(=O)c2cccs2)[nH]1 [CBK266879] | 153.911
CC(C)Nc1cc(SCc2ccc(Cl)c(Cl)c2)ncn1 [CBK103665] | 99.3911
CCOc1c(Br)cc(CNc2nc[nH]n2)cc1OC [CBK268009] | 106.143

Quoted at random: 4 compounds from above
SMILES | % of control remaining [%]
Nc1ncc(-c2ccc3c(c2)OCO3)nc1-c1ccc(O)cc1 [CBK122505] | 77.8919
COc1cc(-c2cn3ccnc3c(NCC3CC3)n2)ccc1O [CBK037538] | 157.202
CC(C)C(=O)Nc1cc2ccccc2c(-c2ccc(OCc3ccccc3)c(F)c2)n1 [CBK073783] | 105.638
COc1cc(Nc2nc(-c3c(OC)cccc3OC)cn3ccnc23)cc(OC)c1OC [CBK037395] | 97.7388
